Screen size: about 400,000 compounds; about 13,000 (3.2%) were called active. This list was built around the results that the source calls inconclusive (neither active nor inactive); the mix of calls is not that of the screen. Calls come from the whole dose curve; as a rule, active = well fitted cell-killing curve with a large enough effect; inconclusive = small, poorly fitted or top-dose-only effect, or effect the other way; inactive = flat fitted curve, though single readings scatter. Potencies of inconclusive entries are doubtful fits and often do not repeat.
experiment: qHTS assay for MDR1-selective chemotherapeutics: Primary screen using the drug-selected MDR subline cells KB-V1; settings: KB-V1 MDR cells viability, CellTiter-Glo, 72 h; activity change, negative = cytotoxicity: at 46.1 µM (top of the series); note: nearly all actives have a fitted effect of over 60% in size
How it was run: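 Cytotoxicity toward P-gp-expressing KB-V1 cells was determined as loss of CellTiter-Glo luminescence after 72 h at 37 degrees C. Compounds were tested in quantitative HTS format across a concentration range, with curves fitted to normalized data.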
% is set by controls: 0 for no effect and ±100 for the full control effect; potency is the fitted concentration of half-maximal effect.

Structure (SMILES)	activity change, negative = cytotoxicity	Potency
COc1cc(/C=C/C(=O)OCC(=O)N2CCN(C(=O)c3ccco3)CC2)ccc1O	inactive: -2.13%	–
CCc1cc(=O)oc2cc(C)cc(OC(C)C(=O)NCc3cccnc3)c12 (centres undefined)	–	inconclusive: 16.4 µM [rising, single point]
O=C(COc1ccc(Cl)cc1)N1CCN(S(=O)(=O)c2cc(F)ccc2F)CC1	–	inconclusive: 14.6 µM [cytotoxic, partial curve]
CCN(CC)CCNC(=O)c1c2c(nc3ccccc13)C(=O)N(C1CCCCC1)C2	inactive: 15%	–
O=C(Nc1ccc(N2CCOCC2)c(Cl)c1)c1ccc(Cl)cc1	–	inconclusive: 7.31 µM [cytotoxic, partial curve]
O=C(O)Cn1c(O)c(C=Nc2ccccc2)sc1=S	–	inactive
CCOc1ccc(NC(=O)COc2ccc(S(=O)(=O)NC3CCCCC3)cc2)cc1	–	inconclusive: 20.6 µM [cytotoxic, single point]
CC(C)NC(=O)c1onc(CSc2cccc3ccccc23)c1C(=O)O	–	inconclusive: 29.1 µM [rising, single point]
CCOC(=O)C1=C(C)NC(=O)NC1c1ccc(-c2ccccc2F)o1 (centres undefined)	–	inconclusive: 13 µM [cytotoxic, partial curve, poor fit]
CCOCCCn1cc(C(=O)c2cc(Br)ccc2O)cc(C#N)c1=O	–	inconclusive: 20.6 µM [cytotoxic, single point]
CCC(=O)NC(=S)Nc1ccc(NC(=S)NC(=O)c2ccccc2)cc1	–	inconclusive: 23.1 µM [rising, partial curve, poor fit]
Cc1onc(-c2ccccc2)c1C(=O)NC(=S)NNC(=O)c1ccccc1O	inconclusive: -13.6%	–
CC1CCC2C(=O)N(c3ccc(Cc4ccncc4)cc3)C(=O)C2C1 (centres undefined)	–	active: 10.3 µM
CCc1ccc2[nH]c(=O)c(CN(Cc3ccccc3OC)C(=O)Nc3ccccc3OC)cc2c1	inactive: -15.5%	–
Cc1cccc(NC(=O)NCc2ccc3[nH]c(C)cc3c2)c1	–	inconclusive: 20.6 µM [rising, single point]
CSc1cc(C)c(OCC(=O)Nc2c(C)nn(C)c2C)c(C)c1	–	inconclusive: 16.4 µM [cytotoxic, partial curve]
Cc1ccc(CN2C(=O)[C@@H]3Cc4c([nH]c5ccccc45)C(C)(C)N3C2=O)cc1	–	inconclusive: 25.9 µM [cytotoxic, single point]
CCCn1c(SCC(=O)Nc2cccc(C)n2)nc2c1c(=O)n(C)c(=O)n2C	–	inconclusive: 7.31 µM [cytotoxic, partial curve]
Nc1cc(Cl)cc2c1-c1ccc(Cl)cc1C2O (centres undefined)	–	inconclusive: 20.6 µM [cytotoxic, single point]
CC1CCCN(c2nc3ccccc3nc2C(C#N)S(=O)(=O)c2cccs2)C1 (centres undefined)	–	inconclusive: 16.4 µM [cytotoxic, single point]
COc1ccc2oc(C(=O)Nc3cccc(S(=O)(=O)N4CCOCC4)c3)c(C)c2c1	–	inconclusive: 18.4 µM [cytotoxic, single point]
CCc1cccc(NC(=O)C2CC2c2ccccc2)c1 (centres undefined)	inactive: -13.8%	–
CCOc1ccccc1NC(=O)C1CCC(CNc2c(N3CCOCC3)c(=O)c2=O)CC1 (centres undefined)	–	inconclusive: 5.17 µM [rising, full curve, poor fit]

Structure (SMILES)	activity change, negative = cytotoxicity	Potency
CC1CN(CCOc2ccccc2[N+](=O)[O-])CC(C)O1 (centres undefined)	–	inconclusive: 4.11 µM [cytotoxic, full curve, poor fit]
O=C(NC(=S)NC1CCCc2ccccc21)c1ccc(F)cc1 (centres undefined)	–	inconclusive: 29.1 µM [cytotoxic, single point]
Cn1c(=O)c2sccc2n2c(CCC(=O)NCc3ccc(Cl)cc3)nnc12	inconclusive: -7.66%	–
Cc1ccc(S(=O)(=O)Nc2ccc(SC(F)F)cc2)c(C)c1	–	active: 16.4 µM
Cc1cccc2c1cnn2C(=O)Nc1ccccc1Cl	inactive: -0.0424%	–
Cc1ccc(Cl)cc1Nc1nn2c(=O)c3ccc(C(=O)NCc4ccc(F)cc4)cc3nc2s1	inactive: 11.2%	–
CSc1ccc(S(=O)(=O)NCC(=O)OCC(=O)N2CCC(C)CC2)cc1[N+](=O)[O-]	–	inconclusive: 14.6 µM [rising, single point]
Cc1cccn2c(=O)c(C(=O)NCc3cccc(F)c3)cnc12	–	inconclusive: 29.1 µM [cytotoxic, partial curve, poor fit]
CCOC(=O)CSc1ccc(-c2nc3cc(C)c(C)cc3[nH]2)cn1	inactive: 5.04%	–
Cc1ccccc1Oc1nc(-c2ccccn2)nc2ccccc12	–	active: 9.2 µM
Cc1cc(-c2cccnc2)c(C#N)c(SCc2cccc(F)c2)n1	–	active: 11.6 µM
Cn1c(=O)c(=O)n(C)c2cc(S(=O)(=O)N3CCOc4ccccc43)ccc21	–	inconclusive: 3.26 µM [cytotoxic, partial curve, poor fit]
Oc1ccc(C2C(c3ccccc3)=NN=C(c3ccc(Cl)cc3)N2O)c(O)c1 (centres undefined)	–	inconclusive: 13 µM [cytotoxic, partial curve]
Cc1cccc(N2CCN(C(=O)c3noc4c3COc3ccc(C)cc3-4)CC2C)c1 (centres undefined)	–	inconclusive: 16.4 µM [rising, single point]
COc1ccc(NC(=O)NC2COc3ccccc3C2)cc1Cl (centres undefined)	–	inconclusive: 7.31 µM [rising, partial curve, poor fit]
O=C(NCC(c1ccco1)N1CCN(c2ccc(F)cc2)CC1)C(=O)NC1CCCC1 (centres undefined)	inactive: 0%	–
CCOC(=O)c1cnn(-c2cc(Oc3cccc(C)c3)ncn2)c1N	–	inconclusive: 18.4 µM [cytotoxic, single point]
CCNC(=O)CCS(=O)(=O)c1ccc2ccccc2c1	–	inconclusive: 16.4 µM [cytotoxic, partial curve, poor fit]
CC(C)(C)c1ccc(S(=O)(=O)NCCc2ccncc2)cc1	–	inconclusive: 14.6 µM [cytotoxic, partial curve, poor fit]
Cc1ccc([C@H]2C[C@H](O)[C@@H](n3cc(C4CC4)nn3)CN2Cc2cccs2)cc1	–	inconclusive: 29.1 µM [cytotoxic, single point]
CCN=c1scc(-c2ccco2)n1/N=C/c1ccc(OC)c(O)c1	–	inconclusive: 20.6 µM [cytotoxic, single point]
CCOC(=O)c1c(C)[nH]c(C)c1C(=O)COC(=O)c1cc(OC)cc(OC)c1	–	inconclusive: 32.6 µM [cytotoxic, single point]
CCNC(=O)/C(C#N)=C/c1c(N2CCN(c3ccccc3)CC2)nc2ccccn2c1=O	inactive: -30.3%	–

Look-ups from the entries so far.
Potency with Cc1ccc(S(=O)(=O)Nc2ccc(SC(F)F)cc2)c(C)c1 reads active: 16.4 µM
Potency with Oc1ccc(C2C(c3ccccc3)=NN=C(c3ccc(Cl)cc3)N2O)c(O)c1 (centres undefined) reads inconclusive: 13 µM [cytotoxic, partial curve]
Potency with Cc1ccc([C@H]2C[C@H](O)[C@@H](n3cc(C4CC4)nn3)CN2Cc2cccs2)cc1 reads inconclusive: 29.1 µM [cytotoxic, single point]
Potency with CC(C)(C)c1ccc(S(=O)(=O)NCCc2ccncc2)cc1 reads inconclusive: 14.6 µM [cytotoxic, partial curve, poor fit]
Potency with CC1CN(CCOc2ccccc2[N+](=O)[O-])CC(C)O1 (centres undefined) reads inconclusive: 4.11 µM [cytotoxic, full curve, poor fit]
Potency with COc1ccc(NC(=O)NC2COc3ccccc3C2)cc1Cl (centres undefined) reads inconclusive: 7.31 µM [rising, partial curve, poor fit]

Carrying on:

Structure (SMILES)	activity change, negative = cytotoxicity	Potency
CSc1ccc(CCNC(=O)CCc2c(C)nc3ncnn3c2C)cc1	inactive: 3.93%	–
Cc1ccc(OCCCCn2ccnc2)c(Cl)c1	–	active: 20.6 µM
CCn1c(SCC(=O)N2CCCCC2C)nc2c1c(=O)n(C)c(=O)n2C (centres undefined)	–	inconclusive: 11.6 µM [cytotoxic, partial curve]
CCOc1ccccc1C(=O)NC1(C(F)(F)F)C(=O)Nc2c1c(=O)[nH]c(=O)n2-c1ccc(F)cc1 (centres undefined)	–	inconclusive: 8.2 µM [rising, partial curve]
COc1ccc(N2CCOCC2)c(NC(=O)c2ccco2)c1	–	inconclusive: 16.4 µM [cytotoxic, partial curve]
CSc1ccccc1OCc1cc(C(=O)NC(C)Cn2cncn2)no1 (centres undefined)	–	inconclusive: 18.4 µM [cytotoxic, single point]
COc1cc(OC)cc(C(=O)N[C@H](C(=O)OCC(=O)NC(=O)NC(C)(C)C)C(C)C)c1	–	inconclusive: 3.66 µM [cytotoxic, partial curve, poor fit]
O=C(COC(=O)c1cccc(S(=O)(=O)N2CCCCCC2)c1)Nc1ccccc1	–	inconclusive: 4.11 µM [rising, partial curve, poor fit]
CCCCc1nnc(NC(=O)c2oc3ccccc3c2C)s1	–	inconclusive: 16.4 µM [cytotoxic, partial curve, poor fit]
O=C(CSc1ccc(-c2ccco2)nn1)NC1CCCCC1	–	inconclusive: 16.4 µM [cytotoxic, single point]
Cc1nc(CN(C)C(=O)c2cc(COc3c(F)cccc3F)on2)cs1	–	inconclusive: 20.6 µM [cytotoxic, single point]
CC(=O)n1cc([C@@H]2C=C(C(=O)O)O[C@H](OCc3ccc(CO)cc3)C2)c2ccccc21	inactive: 19.1%	–
O=[N+]([O-])c1ccc(-c2nnc(-c3ccccc3)c(N3CCOCC3)n2)cc1	–	active: 11.6 µM
NC(=O)C1CCN(C(=O)C(Cc2ccccc2)NC(=O)c2ccccc2)CC1 (centres undefined)	inactive: 2.24%	–
COCOc1ccc(-c2cc(=O)c3c(O)cc(OCOC)cc3o2)cc1	–	inconclusive: 1.84 µM [cytotoxic, single point]
COc1ccccc1/C=C/C=N/NC(=O)c1cc(-c2ccco2)[nH]n1	–	inconclusive: 18.4 µM [cytotoxic, single point]
CN(CC(=O)O)c1ccc(/C=C/c2ccnc3ccccc23)cc1	–	inconclusive: 29.1 µM [cytotoxic, single point]
Cc1ccc(OCc2cc(C(=O)N(C)Cc3cnn(C)c3)no2)cc1C	inactive: 5.59%	–
O[C@H]1C[C@H](c2ccc(Cl)cc2)N(CC2CCCCC2)C[C@@H]1n1cc(C2CC2)nn1	–	inconclusive: 29.1 µM [cytotoxic, single point]
O=C(Nc1cccc(F)c1)c1ccc(Br)o1	–	inconclusive: 29.1 µM [rising, single point]
C=CCOc1ccc(/C=C(\C#N)C(=O)Nc2ccccn2)cc1	inactive: -0.944%	–
COc1ccc(NC2CCCN(C(=O)CN3CCOC3=O)C2)cc1OC (centres undefined)	inactive: 0%	–
CCNC(=S)NNC(=O)c1cccn(Cc2ccc(Cl)cc2)c1=O	–	inconclusive: 14.6 µM [cytotoxic, partial curve, poor fit]

Reference: PubChem BioAssay AID1347076 (National Center for Advancing Translational Sciences (NCATS), 2019)
